Screening data

The results are deposited in PubChem (AID893; NCATS, 2007).

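Recombinant human HSD17B10 (3-hydroxyacyl-CoA dehydrogenase type-2) enzyme, with activity tracked as NADH fluorescence build-up in a kinetic read.
Each compound was run as a 15-point series from about 0.0007 to 57 µM.
Fitted half-maximal potency (AC50) from the inhibition curve; a lower value means a more potent inhibitor. The record's title names HSD17B4; its protocol and target entry give this enzyme.
Active means a well-fitted inhibition curve with a large enough effect; inconclusive means a weak, poorly fitted or top-concentration-only effect.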

Values are in µM.
Only part of the assay is listed here, not a random draw.
Potencies fitted to partial, single-point or poorly fitting curves are rough.

Compound,potency (µM),outcome,curve
C=CCn1c(=N)c(C(=O)NCCCOC)cc2c(=O)n3ccccc3nc21,25.12,active,-
CSc1ccccc1NC(=O)c1c(C)noc1C,25.12,active,-
COc1ccc(/C=C/C(O)=C2/C(=O)N(C)C3(C)CC2c2ccccc2O3)cc1 (centres unmarked),31.62,active,-
O=C(CCCn1c(=S)[nH]c2cc3c(cc2c1=O)OCO3)N1CCN(c2ccc(Cl)cc2)CC1,39.81,inconclusive,"inhibitor, single point"
COCCn1c(=O)c(CCc2ccccc2)nc2cnc(Nc3cccc(OC)c3)nc21,31.62,inconclusive,"inhibitor, single point"
CCN1CCc2c(sc(N)c2C#N)C1,31.62,inconclusive,"inhibitor, single point"
C=CCNc1sc(C(=O)c2cccs2)c(N)c1C#N,19.95,inconclusive,"inhibitor, single point"
CN(C)c1ncc2nc(-c3ccc(Cl)cc3)c(=O)n(C)c2n1,25.12,inconclusive,"inhibitor, single point"
O=c1c(-c2cccs2)nc2cnc(N3CCOCC3)nc2n1-c1ccccc1,12.59,active,-
CCOc1ccc2[nH]c(=O)c(CN(CCO)C3(c4nnnn4C4CCCCC4)CCCCC3)cc2c1,39.81,inconclusive,"inhibitor, single point"
Cc1ccc(-c2cc(C(F)(F)F)c(C#N)c(SCCC#N)n2)o1,10,active,-
COc1ccc(Oc2ncc3nc(-c4cccs4)c(=O)n(Cc4cccc(OC)c4)c3n2)cc1,39.81,inconclusive,"inhibitor, single point"
N#CC(C(=O)NC1CC1)c1nc2ccccc2nc1N1CCCC1 (centres unmarked),25.12,active,-
CC(C)[C@]1(NC(=O)[C@@H]2C=C3c4cccc5[nH]cc(c45)C[C@H]3N(C)C2)O[C@@]2(O)C3CCCN3C(=O)[C@H](Cc3ccccc3)N2C1=O (some centres unmarked),12.59,active,-
CC(=O)Oc1ccccc1C(=O)O,39.81,inconclusive,"inhibitor, single point"
COc1ccc(-c2cc(=O)oc3c(C)c(O)c(CN(C)C)cc23)cc1,25.12,inconclusive,"inhibitor, single point"
CCC(C)(C)n1nnnc1CN(Cc1cccs1)Cc1cc2cc(OC)ccc2[nH]c1=O,39.81,inconclusive,"inhibitor, single point"
COc1cc2c(cc1OC)C1=C(C#N)COCN1CC2,39.81,inconclusive,"inhibitor, single point"
N#CCCn1c(=O)c(-c2ccccc2)nc2cnc(Oc3ccccc3)nc21,31.62,active,-
CN1CCc2c(sc3c2C(=O)NC(/C=C/c2ccco2)N3)C1 (centres unmarked),25.12,active,-
CCNc1ncc2nc(-c3ccc(Cl)cc3)c(=O)n(Cc3cccc(OC)c3)c2n1,5.012,inconclusive,"inhibitor, single point"
CN1CCN(c2ncc3nc(-c4ccccc4)c(=O)n(-c4ccccc4)c3n2)CC1,25.12,active,-
CC1=CC(=O)NP(=O)(Oc2ccc3ccccc3c2)N1 (centres unmarked),39.81,inconclusive,"inhibitor, single point"
O=C(O)Cc1cc(I)c(Oc2ccc(O)c(I)c2)c(I)c1,12.59,inconclusive,"inhibitor, partial curve"
COc1cccc(Nc2ncc3nc(CCc4ccccc4)c(=O)n(CCC#N)c3n2)c1,39.81,inconclusive,"inhibitor, single point"
COC(=O)[C@H]1[C@H]2C[C@@H]3c4[nH]c5cc(OC)ccc5c4CCN3C[C@H]2C[C@@H](OC(=O)c2cc(OC)c(OC)c(OC)c2)[C@@H]1OC,25.12,inconclusive,"inhibitor, single point"
COc1ccc(-c2cc(C(F)F)n3ncc(C(=O)NCC4CCCO4)c3n2)cc1 (centres unmarked),25.12,active,-
COc1ccc(-c2nc3cnc(N4CCNCC4)nc3n(CCC#N)c2=O)cc1,25.12,inconclusive,"inhibitor, single point"
CNCCCC1c2ccccc2C=Cc2ccccc21,12.59,active,-
O=C(Nc1nc2ccccc2n1CCN1CCCC1)c1ccc(Cl)cc1,31.62,inconclusive,"inhibitor, single point"
COc1ccc(-n2c(NC(=O)c3ccco3)c(C#N)c3nc4ccccc4nc32)cc1,25.12,active,-
CC(C)OC(=O)c1c(NC(=O)c2cccs2)sc2c1CCCC2,31.62,active,-
CC(C)NC[C@@H](O)COc1cccc2ccccc12,39.81,inconclusive,"inhibitor, single point"
O=C(c1cnn2c(C(F)(F)F)cc(-c3ccco3)nc12)N1CCc2ccccc2C1,31.62,inconclusive,"inhibitor, single point"
O=C(NC1CCCCC1)c1cnn2c(C(F)(F)F)cc(-c3ccco3)nc12,31.62,active,-
COc1ccccc1CN(Cc1cc2cc(C)ccc2[nH]c1=O)Cc1nnnn1CC1CCCO1 (centres unmarked),39.81,inconclusive,"inhibitor, single point"
CC(=O)Nc1nnc(SCC(=O)NCCOc2ccccc2)s1,25.12,inconclusive,"inhibitor, single point"
CN(C)c1ncc2nc(-c3cccs3)c(=O)n(CCc3ccccc3)c2n1,19.95,active,-
NC(=O)C1(N2CCCCC2)CCN(C(=O)c2cccn3c(=O)c4cc(Cl)ccc4nc23)CC1,31.62,inconclusive,"inhibitor, single point"
COCCn1c(=O)c(-c2cc(F)cc(F)c2)nc2cnc(OCc3ccccc3)nc21,39.81,inconclusive,"inhibitor, single point"
COCCN(CCOC)C(=O)c1cc2c(=O)n3ccccc3nc2s1,15.85,active,-
COCCN(CCOC)c1cc(C)c(C#N)c2nc3ccccc3n12,25.12,active,-
c1coc(-c2nc3ccccc3nc2-c2ccco2)c1,31.62,active,-
CCC(c1nnnn1Cc1ccccc1)N(Cc1ccco1)Cc1cc2cc(OC)ccc2[nH]c1=O (centres unmarked),31.62,active,-
CC(=C1C2C=CC1C1C(=O)NC(=O)C21)c1ccccc1 (centres unmarked),39.81,inconclusive,"inhibitor, single point"
O=c1c(CCc2ccccc2)nc2cnc(N3CCNCC3)nc2n1-c1ccccc1,39.81,inconclusive,"inhibitor, single point"
CCN1C(=O)/C(=C2/Sc3ccc(OC)cc3N2C)SC1=Nc1cccc(O)c1,31.62,inconclusive,"inhibitor, single point"
CC(=O)OCC(CCn1cnc2cnc(N)nc21)COC(C)=O,39.81,inconclusive,"inhibitor, single point"
CCCn1nc(NC(=O)c2cccs2)c2cc3cc(OC)ccc3nc21,39.81,inconclusive,"inhibitor, single point"
O=c1c(-c2cc(F)cc(F)c2)nc2cnc(N3CCOCC3)nc2n1-c1ccccc1,25.12,inconclusive,"inhibitor, partial curve"
CC1(C)Cc2c(sc3nc(-c4cccs4)n(N)c(=O)c23)CO1,39.81,inconclusive,"inhibitor, single point"
Cn1c(C(=O)N2CCN(C(=O)c3ccco3)CC2)cc2c(=O)n3ccccc3nc21,31.62,active,-
COC(=O)C1=C(C)NC2=C(C(=O)CC(C)(C)C2)C1c1cccc(C)n1 (centres unmarked),39.81,inconclusive,"inhibitor, single point"
CCOc1ccc(C2C=C(c3ccc(C)cc3)Nc3nnnn32)cc1 (centres unmarked),31.62,inconclusive,"inhibitor, single point"
Cc1cc(NCCCCO)n2c(nc3ccccc32)c1C#N,25.12,active,-

4 of the entries, repeated:

Compound	potency (µM)	outcome	curve
COc1ccc(-c2nc3cnc(N4CCNCC4)nc3n(CCC#N)c2=O)cc1	25.12	inconclusive	inhibitor, single point
CN1CCN(c2ncc3nc(-c4ccccc4)c(=O)n(-c4ccccc4)c3n2)CC1	25.12	active	-
CN(C)c1ncc2nc(-c3cccs3)c(=O)n(CCc3ccccc3)c2n1	19.95	active	-
COc1ccc(-c2cc(=O)oc3c(C)c(O)c(CN(C)C)cc23)cc1	25.12	inconclusive	inhibitor, single point